Some of the results follow.
Target: T1, OsSMF1 (Oryza sativa, UniProt Q6ZLB0 1-436)
T1 sequence: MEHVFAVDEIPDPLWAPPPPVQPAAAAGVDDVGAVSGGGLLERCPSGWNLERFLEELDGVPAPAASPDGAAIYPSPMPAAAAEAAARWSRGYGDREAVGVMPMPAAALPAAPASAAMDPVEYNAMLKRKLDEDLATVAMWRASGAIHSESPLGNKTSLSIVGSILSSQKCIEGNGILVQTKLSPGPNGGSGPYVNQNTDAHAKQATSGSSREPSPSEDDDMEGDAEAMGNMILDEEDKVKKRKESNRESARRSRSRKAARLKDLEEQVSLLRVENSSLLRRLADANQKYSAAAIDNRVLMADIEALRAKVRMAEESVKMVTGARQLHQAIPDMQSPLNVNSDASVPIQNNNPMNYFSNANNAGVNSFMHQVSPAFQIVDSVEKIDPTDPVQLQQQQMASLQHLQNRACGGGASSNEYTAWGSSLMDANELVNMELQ
Assay: protein-binding microarray (RPBM); PBS, 2% BSA, 51.3 ng/ul salmon testes DNA, 50 uM zinc acetate, 200 nM TF, 25 C, 1 h; high values mean tight binding
Conditions: protein: recombinant; tags: N-terminal polyhistidine and DsRed monomer fusion (pET32a); chain copies: 2; label: CyDye5-dUTP incorporated in the synthesized complementary strand; 3' TTTTT single-stranded linker to array surface; dsDNA, one strand shown
Procedure, shortened: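 Polyhistidine-tagged DsRed fusions of transcription factors, joined at the N-terminus, were expressed in E. coli BL21-CodonPlus and isolated on Ni–NTA. They were incubated at 200 nM for 1 h at 25 °C on a custom Agilent array, double-stranded and BSA-blocked, in PBS with 2% BSA, salmon testes DNA and 50 µM zinc acetate. The binding signal is per-feature fluorescence intensity (arbitrary units) read on an Axon 4000B scanner after washing.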

Row | Sequence | binding signal
1 | TCTCTGTGGAGAAAATTCGATCATAGCACAGCAAAGAAAACGGAGTCACCTAGTGCAG | 5530 fluorescence intensity (a.u.)
2 | GCTGCTGCTGCATCCTCCTCTCCTGTGACCTGTCACAGCTCGGAGTCACCTAGTGCAG | 8080 fluorescence intensity (a.u.)
3 | ACTGTGCGCCACACAAGTCACTGTCTCCTCCCAGATGGAGCGGAGTCACCTAGTGCAG | 3300 fluorescence intensity (a.u.)
4 | AGAAATATCATCAACCACCTCATAGTGACTTCGCTTCACTCGGAGTCACCTAGTGCAG | 4410 fluorescence intensity (a.u.)
5 | GCGCATTAGCCACCCCACCTCTCCGCGTGGGCCCCGCCAACGGAGTCACCTAGTGCAG | 3160 fluorescence intensity (a.u.)
6 | TCCACTAGCTAGTAGTACTACTTGAGTTCACAACCGTGCTCGGAGTCACCTAGTGCAG | 3860 fluorescence intensity (a.u.)
7 | CAGCCACCTGGGAGGATGCATCTTTCATTGCCAAGGTTTTCGGAGTCACCTAGTGCAG | 25100 fluorescence intensity (a.u.)
8 | ATGGCCATGTTTGTTTCAACTTAAGATTATTATAATCTAGCGGAGTCACCTAGTGCAG | 33900 fluorescence intensity (a.u.)
9 | TTTTAGCCTCCTTTTGGTTAATCTTTGTTTGATCCAAGAACGGAGTCACCTAGTGCAG | 10200 fluorescence intensity (a.u.)
10 | TAATTTTACACGTATTCAAGATATGCCACTACCCTTTGGACGGAGTCACCTAGTGCAG | 6340 fluorescence intensity (a.u.)
11 | CCGCGACAGAGGCACGGGTCGCCACGTACGTTCGCAGCTCCGGAGTCACCTAGTGCAG | 7950 fluorescence intensity (a.u.)
12 | ATTAAAGTGGATTAAAGTGTATTCCTTATACACCAGTTAGCGGAGTCACCTAGTGCAG | 3140 fluorescence intensity (a.u.)
13 | TATGTGTTGACACCAAGGCTGACTCGGTTTTCGTCAAGGTCGGAGTCACCTAGTGCAG | 6530 fluorescence intensity (a.u.)
14 | AAAGGAAAATAACAAGGCATGTAACGGTGTTTACCATATCCGGAGTCACCTAGTGCAG | 9130 fluorescence intensity (a.u.)
15 | ACCGTGAGATCCATCACAGCAATCCCACAATCACGACCGTCGGAGTCACCTAGTGCAG | 4230 fluorescence intensity (a.u.)
16 | CGGTGTCAAACTGTCATGGGTAAGATGAATCATCCTTATGCGGAGTCACCTAGTGCAG | 3800 fluorescence intensity (a.u.)
17 | TTGCGATTGGAGAGACAGAGAGGAGGGTGTGGGTGCGGGGCGGAGTCACCTAGTGCAG | 3830 fluorescence intensity (a.u.)
18 | ATCGAATTAACATGTAAACGTCATGTCAATACTACATAGGCGGAGTCACCTAGTGCAG | 5040 fluorescence intensity (a.u.)
19 | GGGTTGGTGGTGCTGCGTGCAGGTCACGGCCGCTACGGCTCGGAGTCACCTAGTGCAG | 4130 fluorescence intensity (a.u.)
20 | TTTATATCATCTGGATGGGAGGGTTCTGCAACTGATGCTACGGAGTCACCTAGTGCAG | 3720 fluorescence intensity (a.u.)
21 | GGCGTACCGTGCGCCCATGCGCGACGCGTGGCACGCGCTCCGGAGTCACCTAGTGCAG | 7700 fluorescence intensity (a.u.)

Row | Sequence | binding signal
22 | CATATAACAAGTGACTGGCACACAAACCCACAATGAAGTGCGGAGTCACCTAGTGCAG | 43500 fluorescence intensity (a.u.)
23 | AGCCTAGCTATGATGTGTTCCCACACCAGCTAGCTAGCTTCGGAGTCACCTAGTGCAG | 4640 fluorescence intensity (a.u.)
24 | AGCCCGGCCCACCACGGGGTTTCCCTCTTCTCTAGGCCCGCGGAGTCACCTAGTGCAG | 50600 fluorescence intensity (a.u.)
25 | GAAGTAGAAATTTGATGTGGCCACTTTCACGTAGATCTATCGGAGTCACCTAGTGCAG | 4130 fluorescence intensity (a.u.)
26 | CGAACAAGCCATAAATCAAATATCGGAGAGCGAAAGAGTACGGAGTCACCTAGTGCAG | 22600 fluorescence intensity (a.u.)
27 | TTGGTAAGGATGAGCTGGAAGAGTCATCAAAGCATGGCACCGGAGTCACCTAGTGCAG | 3290 fluorescence intensity (a.u.)
28 | GTCTACGGAGTACGGACATGACACGAGACAATATTACCCCCGGAGTCACCTAGTGCAG | 3350 fluorescence intensity (a.u.)
29 | CGCGATAGCGATGTGACTCATTTACCGCTGATCTGATCTGCGGAGTCACCTAGTGCAG | 7490 fluorescence intensity (a.u.)
30 | ACGGTTTTATCTTGTCACTCGGGTGTTGCTAGGGCACGATCGGAGTCACCTAGTGCAG | 3430 fluorescence intensity (a.u.)
31 | CTCGCCGGCGTCTTCACCAGGCGCTCCGCCTCCACGTCGGCGGAGTCACCTAGTGCAG | 8520 fluorescence intensity (a.u.)
32 | GCATGCTTACGCATGTTGTATCACTGTATCAGTGTATCACCGGAGTCACCTAGTGCAG | 3520 fluorescence intensity (a.u.)
33 | TGCCGGGGTTACCACGCCCCGGCGGTAAGCACGGTTACCGCGGAGTCACCTAGTGCAG | 3180 fluorescence intensity (a.u.)
34 | ATTAGCAGTTTGCTAATGACAGAGTAGTGACGTTGTTTTCCGGAGTCACCTAGTGCAG | 3610 fluorescence intensity (a.u.)
35 | GATTGGGGAGCGGAGGAAGAGGAGGGGAAGTGGAGAGAGTCGGAGTCACCTAGTGCAG | 3540 fluorescence intensity (a.u.)
36 | TTTTGCCACCTGTTTCAGTGTTAGTGCTGTATGATGCTACCGGAGTCACCTAGTGCAG | 4200 fluorescence intensity (a.u.)
37 | TTCTATAAAATTGGTCAAACTTTAATACGAAACGGATGGACGGAGTCACCTAGTGCAG | 3660 fluorescence intensity (a.u.)
38 | ACCCCTCCCGCCGCCGTGGGTTTCCGCCTCGTTCTCGAGCCGGAGTCACCTAGTGCAG | 3360 fluorescence intensity (a.u.)
39 | CTGCGCGCACCGCGCGGTTGCCACGCACCGCCCGACGCACCGGAGTCACCTAGTGCAG | 4990 fluorescence intensity (a.u.)
40 | TTGTATTTGTTAATGGAATGCTGATTGGTGCACAGCAAACCGGAGTCACCTAGTGCAG | 3170 fluorescence intensity (a.u.)
41 | ATTGAATATAATTGGATATAAACAGTTTAAAACTATACTCCGGAGTCACCTAGTGCAG | 5510 fluorescence intensity (a.u.)
42 | CCCACTATTAGCTCCAATTCATCTCTGGCCAATCTAATAGCGGAGTCACCTAGTGCAG | 3370 fluorescence intensity (a.u.)

A different layout for some results above.
Row	Sequence	binding signal
30	ACGGTTTTATCTTGTCACTCGGGTGTTGCTAGGGCACGATCGGAGTCACCTAGTGCAG	3430 fluorescence intensity (a.u.)
31	CTCGCCGGCGTCTTCACCAGGCGCTCCGCCTCCACGTCGGCGGAGTCACCTAGTGCAG	8520 fluorescence intensity (a.u.)
32	GCATGCTTACGCATGTTGTATCACTGTATCAGTGTATCACCGGAGTCACCTAGTGCAG	3520 fluorescence intensity (a.u.)
33	TGCCGGGGTTACCACGCCCCGGCGGTAAGCACGGTTACCGCGGAGTCACCTAGTGCAG	3180 fluorescence intensity (a.u.)
34	ATTAGCAGTTTGCTAATGACAGAGTAGTGACGTTGTTTTCCGGAGTCACCTAGTGCAG	3610 fluorescence intensity (a.u.)
35	GATTGGGGAGCGGAGGAAGAGGAGGGGAAGTGGAGAGAGTCGGAGTCACCTAGTGCAG	3540 fluorescence intensity (a.u.)
36	TTTTGCCACCTGTTTCAGTGTTAGTGCTGTATGATGCTACCGGAGTCACCTAGTGCAG	4200 fluorescence intensity (a.u.)
37	TTCTATAAAATTGGTCAAACTTTAATACGAAACGGATGGACGGAGTCACCTAGTGCAG	3660 fluorescence intensity (a.u.)
38	ACCCCTCCCGCCGCCGTGGGTTTCCGCCTCGTTCTCGAGCCGGAGTCACCTAGTGCAG	3360 fluorescence intensity (a.u.)
39	CTGCGCGCACCGCGCGGTTGCCACGCACCGCCCGACGCACCGGAGTCACCTAGTGCAG	4990 fluorescence intensity (a.u.)
